# For at least one compound, name, drawing or mass did not settle the structure.
# How the values were obtained:
# E. coli ATCC®25922 = conditions: cited from earlier work
# [1] = system: Escherichia coli (ATCC®25922™); experiment: Antimicrobial susceptibility testing in water-in-oil droplets, microscope reading; type: cell-based
# Procedure: (at 30° C. for the C. albicans).
compound,measurement,setting,value
CN(C)[C@@H]1C(O)=C(C(N)=O)C(=O)[C@@]2(O)C(O)=C3C(=O)c4c(O)cccc4[C@@](C)(O)[C@H]3C[C@@H]12 [Tetracycline],Expected MIC (CLSI),E. coli ATCC®25922,0.5 to 2 µg/mL
same,Growth in droplets (observation in words),"[1]; 0.25 mg/L, reading time 4 h",Limited growth in few
same,Growth in droplets (observation in words),"[1]; 0.5 mg/L, reading time 4 h",No growth
same,Growth in droplets (observation in words),"[1]; 0.5 mg/L, reading time 6 h",No growth

# From US11952610B2, “Digital microbiology” (priority 2016, dated 2024)
